Source: the supplement of paper PMC7661543
The effect of the compound repeats well; differences between the knockouts mostly do not. Where a SMILES comes first, the peptide text is derived from it. The star is where a group is joined. Cbz = O=C(OCc1ccccc1)*

Tested on: MDA-MB-231
Assay: relative cell number vs DMSO control (72 h) (% of DMSO); higher = less growth inhibition (more cells)
Method: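 QMAP-Seq: a pool of 5 breast cancer cell lines (ZR-75-1, SKBR3, HCC-38, MDA-MB-231, BT-20), each carrying 12 doxycycline-inducible Cas9 sgRNA perturbations (11 knockouts plus non-targeting sgNT), was treated with compounds for 72 h at four 10-fold doses (10 nM-10 uM or 1 nM-1 uM range). Barcodes were amplified and sequenced, and cell number was interpolated from 293T spike-in standard curves. The result is expressed as % of the median of DMSO wells. Two biological replicates.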

CC(C)C[C@@H](C=O)NC(=O)[C@H](CC(C)C)NC(=O)[C@H](CC(C)C)NC(=O)OCc1ccccc1 [MG132] (Cbz-Leu-Leu-Leu-aldehyde)
Settings	relative cell number
sgRNA knockout: sgATF3, 10 nM	96.5
sgRNA knockout: sgATF3, 100 nM	89.8
sgRNA knockout: sgATF3, 1000 nM	10.9
sgRNA knockout: sgATF3, 10000 nM	9.37
sgRNA knockout: sgATF4, 10 nM	97.8
sgRNA knockout: sgATF4, 100 nM	92.6
sgRNA knockout: sgATF4, 1000 nM	7.49
sgRNA knockout: sgATF4, 10000 nM	11.5
sgRNA knockout: sgATF6, 10 nM	86.5
sgRNA knockout: sgATF6, 100 nM	103
sgRNA knockout: sgATF6, 1000 nM	11.5
sgRNA knockout: sgATF6, 10000 nM	11
sgRNA knockout: sgATG7, 10 nM	87.5
sgRNA knockout: sgATG7, 100 nM	94.4
sgRNA knockout: sgATG7, 1000 nM	8.15
sgRNA knockout: sgATG7, 10000 nM	8.71
sgRNA knockout: sgERN1, 10 nM	128
sgRNA knockout: sgERN1, 100 nM	97.6
sgRNA knockout: sgERN1, 1000 nM	7.66
sgRNA knockout: sgERN1, 10000 nM	5.29
sgRNA knockout: sgHSF1, 10 nM	96.9
sgRNA knockout: sgHSF1, 100 nM	87.1
sgRNA knockout: sgHSF1, 1000 nM	7.98
sgRNA knockout: sgHSF1, 10000 nM	10.4
sgRNA knockout: sgHSF2, 10 nM	111
sgRNA knockout: sgHSF2, 100 nM	78.6
sgRNA knockout: sgHSF2, 1000 nM	7.64
sgRNA knockout: sgHSF2, 10000 nM	7.72
sgRNA knockout: sgKEAP1, 10 nM	82.7
sgRNA knockout: sgKEAP1, 100 nM	95
sgRNA knockout: sgKEAP1, 1000 nM	11.1
sgRNA knockout: sgKEAP1, 10000 nM	9.24
sgRNA knockout: sgNFE2L2, 10 nM	90.6
sgRNA knockout: sgNFE2L2, 100 nM	102
sgRNA knockout: sgNFE2L2, 1000 nM	9.76
sgRNA knockout: sgNFE2L2, 10000 nM	10.2
sgRNA knockout: sgSLC35F2, 10 nM	97
sgRNA knockout: sgSLC35F2, 100 nM	116
sgRNA knockout: sgSLC35F2, 1000 nM	10.9
sgRNA knockout: sgSLC35F2, 10000 nM	8.08
sgRNA knockout: sgXBP1, 10 nM	108
sgRNA knockout: sgXBP1, 100 nM	95.1
sgRNA knockout: sgXBP1, 1000 nM	8.31
sgRNA knockout: sgXBP1, 10000 nM	9.17

O=C(O)CC[C@H]1CC[C@@](c2cc(F)ccc2F)(S(=O)(=O)c2ccc(Cl)cc2)CC1 [MK0752]
Settings	relative cell number
sgRNA knockout: sgATF3, 10 nM	163
sgRNA knockout: sgATF3, 100 nM	118
sgRNA knockout: sgATF3, 1000 nM	122
sgRNA knockout: sgATF3, 10000 nM	119
sgRNA knockout: sgATF4, 10 nM	210
sgRNA knockout: sgATF4, 100 nM	154
sgRNA knockout: sgATF4, 1000 nM	135
sgRNA knockout: sgATF4, 10000 nM	145
sgRNA knockout: sgATF6, 10 nM	128
sgRNA knockout: sgATF6, 100 nM	116
sgRNA knockout: sgATF6, 1000 nM	105
sgRNA knockout: sgATF6, 10000 nM	102
sgRNA knockout: sgATG7, 10 nM	127
sgRNA knockout: sgATG7, 100 nM	94.6
sgRNA knockout: sgATG7, 1000 nM	104
sgRNA knockout: sgATG7, 10000 nM	96.8
sgRNA knockout: sgERN1, 10 nM	128
sgRNA knockout: sgERN1, 100 nM	102
sgRNA knockout: sgERN1, 1000 nM	118
sgRNA knockout: sgERN1, 10000 nM	93.4
sgRNA knockout: sgHSF1, 10 nM	109
sgRNA knockout: sgHSF1, 100 nM	115
sgRNA knockout: sgHSF1, 1000 nM	101
sgRNA knockout: sgHSF1, 10000 nM	104
sgRNA knockout: sgHSF2, 10 nM	146
sgRNA knockout: sgHSF2, 100 nM	109
sgRNA knockout: sgHSF2, 1000 nM	107
sgRNA knockout: sgHSF2, 10000 nM	128
sgRNA knockout: sgKEAP1, 10 nM	115
sgRNA knockout: sgKEAP1, 100 nM	94.3
sgRNA knockout: sgKEAP1, 1000 nM	109
sgRNA knockout: sgKEAP1, 10000 nM	118
sgRNA knockout: sgNFE2L2, 10 nM	110
sgRNA knockout: sgNFE2L2, 100 nM	118
sgRNA knockout: sgNFE2L2, 1000 nM	117
sgRNA knockout: sgNFE2L2, 10000 nM	112
sgRNA knockout: sgSLC35F2, 10 nM	143
sgRNA knockout: sgSLC35F2, 100 nM	130
sgRNA knockout: sgSLC35F2, 1000 nM	94.3
sgRNA knockout: sgSLC35F2, 10000 nM	137
sgRNA knockout: sgXBP1, 10 nM	138
sgRNA knockout: sgXBP1, 100 nM	132
sgRNA knockout: sgXBP1, 1000 nM	124
sgRNA knockout: sgXBP1, 10000 nM	120

C=CCn1c(=O)c2cnc(Nc3ccc(N4CCN(C)CC4)cc3)nc2n1-c1cccc(C(C)(C)O)n1 [MK1775]
Settings	relative cell number
sgRNA knockout: sgATF3, 10 nM	85.47
sgRNA knockout: sgATF3, 100 nM	98.1
sgRNA knockout: sgATF3, 1000 nM	24.304
sgRNA knockout: sgATF3, 10000 nM	13
sgRNA knockout: sgATF4, 10 nM	118
sgRNA knockout: sgATF4, 100 nM	73.7
sgRNA knockout: sgATF4, 1000 nM	20.9
sgRNA knockout: sgATF4, 10000 nM	8.04
sgRNA knockout: sgATF6, 10 nM	97.2
sgRNA knockout: sgATF6, 100 nM	92.8
sgRNA knockout: sgATF6, 1000 nM	17
sgRNA knockout: sgATF6, 10000 nM	9.51
sgRNA knockout: sgATG7, 10 nM	85.8
sgRNA knockout: sgATG7, 100 nM	102
sgRNA knockout: sgATG7, 1000 nM	21.8
sgRNA knockout: sgATG7, 10000 nM	8.46
sgRNA knockout: sgERN1, 10 nM	84.9
sgRNA knockout: sgERN1, 100 nM	98.6
sgRNA knockout: sgERN1, 1000 nM	23.9
sgRNA knockout: sgERN1, 10000 nM	7.63
sgRNA knockout: sgHSF1, 10 nM	90.7
sgRNA knockout: sgHSF1, 100 nM	81.9
sgRNA knockout: sgHSF1, 1000 nM	26.72
sgRNA knockout: sgHSF1, 10000 nM	9.39
sgRNA knockout: sgHSF2, 10 nM	82.4
sgRNA knockout: sgHSF2, 100 nM	96.7
sgRNA knockout: sgHSF2, 1000 nM	19.7
sgRNA knockout: sgHSF2, 10000 nM	11
sgRNA knockout: sgKEAP1, 10 nM	85.9
sgRNA knockout: sgKEAP1, 100 nM	100
sgRNA knockout: sgKEAP1, 1000 nM	25.2
sgRNA knockout: sgKEAP1, 10000 nM	11.09
sgRNA knockout: sgNFE2L2, 10 nM	72
sgRNA knockout: sgNFE2L2, 100 nM	86.5
sgRNA knockout: sgNFE2L2, 1000 nM	23.4
sgRNA knockout: sgNFE2L2, 10000 nM	9.31
sgRNA knockout: sgSLC35F2, 10 nM	85.03
sgRNA knockout: sgSLC35F2, 100 nM	72.7
sgRNA knockout: sgSLC35F2, 1000 nM	18.9
sgRNA knockout: sgSLC35F2, 10000 nM	13.1
sgRNA knockout: sgXBP1, 10 nM	91.3
sgRNA knockout: sgXBP1, 100 nM	107
sgRNA knockout: sgXBP1, 1000 nM	24.6
sgRNA knockout: sgXBP1, 10000 nM	10.6
